# Experimental data published in PubChem BioAssay AID2417 (National Center for Advancing Translational Sciences (NCATS), 2010).
# The whole screen tested about 140,000 compounds, of which about 4,300 (3.1%) were called active. The inconclusive results got no clear call from the source; some entries with a clear call stand among them for comparison.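 Rule for the calls: active = readout at or below -70, meaning at least 70% loss of cells showing the perinucleolar compartment, a nuclear body marking cancer cells; inconclusive = readout between -30 and a set limit; inactive = the rest.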
# Assay: High Content Assay for Compounds that inhibit the Assembly of the Perinucleolar Compartment;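 note: plate controls were DMSO wells for no effect and camptothecin positive control wells for full effect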
# Details: PC3M PTB-GFP, PNC prevalence imaging, 16 h; at 10 µM; stronger effect = lower value
# Outline: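 PC3M cells stably expressing PTB-GFP, 750–1000 cells/well, treated 16 h at 37 °C with compound (23 nl of library stock), in duplicate. After paraformaldehyde fixation and Hoechst stain, imaged at 20x; PNC prevalence scored by image analysis.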
row,SMILES,"activity change (PNC), negative = inhibition"
1,O=C1CN(C(=O)c2cnccn2)c2ccccc2N1,inconclusive: -41.6%
2,Cc1nc2ccc(NC(=O)N3CCN(c4ccccn4)CC3)cc2s1,inconclusive: -30.2%
3,CN(C)/C=N/c1sc2c(c1C#N)CCCCC2,inactive: -10.7%
4,N#C/C(=C\c1cccnc1)C(=O)Nc1ccccc1,inconclusive: -52.3%
5,C=CCN(CC=C)c1nc2ccccc2nc1C(C#N)C(=O)OCCOC (configuration not stated),inconclusive: -37.3%
6,CCN1CCN(CC(O)COCCOc2ccc(Br)cc2)CC1 (configuration not stated),inconclusive: -44.4%
7,Brc1ccc(C2=CC(c3cccs3)n3ncnc3N2)cc1 (configuration not stated),inactive: 2.79%
8,Cc1cc(C)c2nc(NNC(=O)c3ccc(S(=O)(=O)N4CCCCC4)cc3)sc2c1,inactive: 46.3%
9,COc1c(/C=N/NC(=O)c2ccccc2O)c(CCN(C)C(C)=O)cc2c1OCO2,inconclusive: -32%
10,CC(C)(C)C(=O)Cn1c[n+](N)cn1,inconclusive: -35.6%
11,CO/N=C/NC(=O)NOCc1ccc(Cl)cc1Cl,inconclusive: -75.8%
12,CCn1c(SCc2nc3scc(-c4ccccc4)c3c(=O)[nH]2)nnc1-c1cccs1,inactive: -2.97%
13,Cn1c(=O)c2c(nc(N3CCOCC3)n2Cc2c(F)cccc2Cl)n(C)c1=O,inconclusive: -65.6%
14,C/C(Cn1cnc([N+](=O)[O-])n1)=N\NC(=O)c1cccc(F)c1,active: -88%
15,Clc1ccc2nc(-c3ccccc3)c(CN3CCOCC3)n2c1,inconclusive: -43%
16,O=C(CC(C(=O)N1CCc2ccccc21)n1ccnc1)NCc1ccccc1 (configuration not stated),inconclusive: -39.1%
17,CCCn1cc(SCC(=O)NCc2ccco2)c2ccccc21,inactive: -21.9%
18,CN(C)S(=O)(=O)Oc1cccc(C(=O)Nc2cccc(Cl)c2)c1,inactive: 25.8%
19,COc1cc(CC(=O)Nc2sccc2C(N)=O)cc(OC)c1OC,inconclusive: -63.2%
20,Cc1ccc2c(c1)N(CC(=O)NCc1ccco1)C(=O)CO2,inconclusive: -46.5%
21,COCCNC(=O)CSc1nc2cc(OC)c(OC)cc2c(=O)n1Cc1ccco1,inconclusive: -53.3%
22,O=C(CNC(=O)c1ccco1)OCc1ccc(Cl)cc1,active: -80.9%
23,CCN(CC)c1ccc(/C=N/NC(=O)c2c[nH]c3ccccc23)cc1,inconclusive: -35.6%

row,SMILES,"activity change (PNC), negative = inhibition"
1,CN(C)CCC=C1c2ccccc2CCc2ccccc21,inactive: -3%
2,O=C(COc1ccc(/C=N/NC(=O)c2ccccc2)cc1)Nc1ccc([N+](=O)[O-])cc1,inactive: 13.1%
3,CCOC(=O)c1c(C)oc2c1c(C=NCC1CCCO1)c(O)c1ccccc12 (configuration not stated),inactive: 55.9%
4,Cc1ccc2c(c1)N=C(c1ccc(F)cc1)CO2,inconclusive: -36.1%
5,COc1ccc2c(CC(=O)OCC(=O)Nc3ccc4c(c3)OCO4)coc2c1,inconclusive: -44.6%
6,CCCCn1cc(SCC(=O)O)c2ccccc21,inconclusive: -32.6%
7,COc1ccccc1OCC(=O)Nc1ccc(S(=O)(=O)Nc2cc(C)nc(C)n2)cc1,inactive: 54.6%
8,CCSc1nnc(NC(=O)CSc2nnc(Cc3cccn3C)n2-c2ccc(C)cc2)s1,inconclusive: -32.6%
9,CCCNC(=O)NC(=O)CSc1nc2ccccc2n1CC(C)C,inactive: -6%
10,COc1ccc(NC(C)=O)cc1CNC(=O)COc1c(C)c(C)cc(C)c1C,inconclusive: -31.2%
11,O=C(O)c1cccc(-c2nnn(Cc3ccccc3)n2)c1,inconclusive: -39.3%
12,Cc1ccccc1CS(=O)(=O)CC1(O)CCN(C(=O)c2cccc(C(F)(F)F)c2)CC1,inconclusive: -72.1%
13,Cc1cccc(NC(=O)c2cc(S(=O)(=O)NCc3ccco3)ccc2F)c1C,inconclusive: -51.1%
14,CCOc1ccc(C2C(C(=O)c3ccco3)=C(O)C(=O)N2CCCn2ccnc2)cc1 (configuration not stated),inconclusive: -64.1%
15,COc1ccc(-n2c(Cc3cccn3C)nnc2SCC(=O)NCC2CCCO2)cc1 (configuration not stated),inactive: -9.98%
16,CC(C)C(C)NC(=O)COc1ccc(Sc2ccc(OCC(=O)NC(C)C(C)C)cc2)cc1 (configuration not stated),inconclusive: -45.1%
17,CCOC(=O)C1CCCN(C(=O)c2ccc(OC)c([N+](=O)[O-])c2)C1 (configuration not stated),active: -94.5%
18,O/N=C/CCn1c(=S)sc2ccccc21,inconclusive: -45.6%
19,COCCCNC(=O)c1ccc2c(=O)n(CC3CCCO3)c(=S)[nH]c2c1 (configuration not stated),inactive: 71.6%
20,Cc1ccnc(SCc2cc(=O)c(OC(=O)c3ccc(Br)o3)co2)n1,active: -82.6%
21,Cc1ccccc1N1CCN(Cc2c[nH]c3ccccc23)CC1,inactive: 15.2%
22,COc1cccc(N2CCN(c3ncnc4c3[nH]c3ccccc34)CC2C)c1 (configuration not stated),inconclusive: -32.6%
23,COc1ccc(C(=O)/C=C/Nc2cccc(C)n2)cc1OC,inconclusive: -78.2%

row,SMILES,"activity change (PNC), negative = inhibition"
1,COc1cccc(C(=O)Nn2c(C)nnc2-n2nc(C)cc2C)c1,active: -100%
2,COc1ccc(S(=O)(=O)N(C)CC(=O)NCc2cccnc2)cc1Cl,inconclusive: -37.4%
3,CC1CC(C)CN(C(=O)COc2ccc(-c3nnco3)cc2)C1 (configuration not stated),inconclusive: -52.1%
4,COc1ccc(N2CCN(c3nc(=S)n(-c4ccccc4)c(C)c3C(C)=O)CC2)cc1,inactive: -0.379%
5,CCN1CCN(c2ccc(NC(=O)c3ccc4c(c3)[nH]c(=O)n4Cc3ccc(OC)cc3)cc2)CC1,inconclusive: -52.4%
6,Nc1nc(-c2ccc3c(c2)NC(=O)CO3)cs1,inconclusive: -46.5%
7,COCCCNC(=O)CNC(=S)N(Cc1ccc(F)cc1)C1CCCCC1,inconclusive: -31.7%
8,CCCCCn1c(N2CCC(C(N)=O)CC2)nc2c1c(=O)[nH]c(=O)n2C,inactive: -5.86%
9,CCOc1ccc(CC(=NCCO)C2=C(O)CC(C)(C)CC2=O)cc1OCC,inconclusive: -32.6%
10,COc1ccc(N(C(=O)c2ccco2)S(=O)(=O)c2ccccc2)cc1,inconclusive: -62.9%
11,Cc1cc(C(F)(F)F)nn1CC(=O)Nc1ccc(Br)c2cccnc12,active: -100%
12,O=S(=O)(Nc1cc(Sc2cccc3cccnc23)c(O)c2ccccc12)c1ccccc1,active: -103%
13,COc1ccc(C2=CC(=O)OC3(CCCC3)O2)cc1,inactive: -18.6%
14,COc1cc(C(=O)N(Cc2ccco2)Cc2cc3ccccc3[nH]c2=O)cc(OC)c1OC,inactive: -1.94%
15,CCOC(=O)C(C)Sc1ncc(OC)c(=O)[nH]1 (configuration not stated),inconclusive: -66.3%
16,S=C1NCCc2ccccc2C1c1ccccc1 (configuration not stated),inactive: -0.361%
17,COc1cc(C)nc(N2CCCC(C(=O)NCC(C)C)C2)n1 (configuration not stated),active: -100%
18,O=C(c1cc2ccccn2n1)N1CCN(c2ccccn2)CC1,inconclusive: -71.3%
19,NC(=S)Nc1cnc2ccccc2c1,inconclusive: -49%
20,Cc1c(N2C(=O)CS/C2=N\N=C\c2ccc(Br)cc2)c(=O)n(-c2ccccc2)n1C,inactive: 21.7%
21,COc1ccc(OC)c(C2NC(=O)c3sc(=S)n(-c4ccccc4)c3N2)c1 (configuration not stated),inactive: 4.01%
22,Cc1cccc(C)c1N=C1SC(CC(=O)Nc2c(C)cccc2C)C(=O)N1CCc1ccccn1 (configuration not stated),active: -112%
23,COc1ccc2[nH]c(=O)c(CN(Cc3nnnn3CCc3ccccc3)CC3CCCO3)cc2c1 (configuration not stated),inactive: -7.29%

# 18 entries from above, tab-delimited:
row	SMILES	activity change (PNC), negative = inhibition
4	N#C/C(=C\c1cccnc1)C(=O)Nc1ccccc1	inconclusive: -52.3%
10	CC(C)(C)C(=O)Cn1c[n+](N)cn1	inconclusive: -35.6%
13	Cn1c(=O)c2c(nc(N3CCOCC3)n2Cc2c(F)cccc2Cl)n(C)c1=O	inconclusive: -65.6%
15	Clc1ccc2nc(-c3ccccc3)c(CN3CCOCC3)n2c1	inconclusive: -43%
19	COc1cc(CC(=O)Nc2sccc2C(N)=O)cc(OC)c1OC	inconclusive: -63.2%
20	Cc1ccc2c(c1)N(CC(=O)NCc1ccco1)C(=O)CO2	inconclusive: -46.5%
23	CCN(CC)c1ccc(/C=N/NC(=O)c2c[nH]c3ccccc23)cc1	inconclusive: -35.6%
4	Cc1ccc2c(c1)N=C(c1ccc(F)cc1)CO2	inconclusive: -36.1%
8	CCSc1nnc(NC(=O)CSc2nnc(Cc3cccn3C)n2-c2ccc(C)cc2)s1	inconclusive: -32.6%
11	O=C(O)c1cccc(-c2nnn(Cc3ccccc3)n2)c1	inconclusive: -39.3%
17	CCOC(=O)C1CCCN(C(=O)c2ccc(OC)c([N+](=O)[O-])c2)C1 (configuration not stated)	active: -94.5%
20	Cc1ccnc(SCc2cc(=O)c(OC(=O)c3ccc(Br)o3)co2)n1	active: -82.6%
8	CCCCCn1c(N2CCC(C(N)=O)CC2)nc2c1c(=O)[nH]c(=O)n2C	inactive: -5.86%
10	COc1ccc(N(C(=O)c2ccco2)S(=O)(=O)c2ccccc2)cc1	inconclusive: -62.9%
11	Cc1cc(C(F)(F)F)nn1CC(=O)Nc1ccc(Br)c2cccnc12	active: -100%
13	COc1ccc(C2=CC(=O)OC3(CCCC3)O2)cc1	inactive: -18.6%
16	S=C1NCCc2ccccc2C1c1ccccc1 (configuration not stated)	inactive: -0.361%
21	COc1ccc(OC)c(C2NC(=O)c3sc(=S)n(-c4ccccc4)c3N2)c1 (configuration not stated)	inactive: 4.01%

# Remaining list, next part.

row,SMILES,"activity change (PNC), negative = inhibition"
1,Cc1ccc(CSc2nnc(Nc3ccc(C)cc3)s2)cc1,inactive: 47.3%
2,CCOc1ccc(C(=O)CCN2CCCCC2)cc1,active: -127%
3,CCCCCCC(=O)Nc1cc2c(C)cc(=O)oc2cc1C,active: -119%
4,CCn1c(SCC(=O)Nc2nc(C)cs2)nnc1-c1ccco1,inconclusive: -37.3%
5,Cc1ccc(C)c(Nc2ncnc(N)c2[N+](=O)[O-])c1,active: -124%
6,O=C(NC1(C(F)(F)F)NC(=O)N(c2ccccc2F)C1=O)c1ccncc1 (configuration not stated),inconclusive: -42.8%
7,O=C(CN1C(=O)C2C3C=CC(C3)C2C1=O)Nc1ccc(S(=O)(=O)N2CCCCC2)cc1 (configuration not stated),inactive: -14.5%
8,O=C(NC1CC1)c1ccc(CS(=O)(=O)c2c(Cl)cccc2Cl)o1,inconclusive: -65%
9,Cc1ccc(Nc2nc(N)nc(CN3CCN(Cc4ccc5c(c4)OCO5)CC3)n2)cc1,inconclusive: -58.6%
10,Cc1cccc(N=C2NC(=O)/C(=C/c3cccs3)S2)c1,inconclusive: -55.4%
11,O=c1[nH]c2cc3c(cc2cc1CN(Cc1ccccc1)Cc1nnnn1Cc1ccco1)OCCO3,inactive: 21.7%
12,Cc1[nH]c2ccccc2c1C(=O)CSc1nc2ccccc2[nH]1,inconclusive: -30.5%
13,O=C(N/N=C/c1ccc2c(c1)OCO2)C1COc2ccccc2O1 (configuration not stated),inconclusive: -51.9%
14,COc1ccccc1Nc1ncnc2ccc(C)cc12,inconclusive: -31%
15,COc1ccccc1OCCCCOc1ccccc1F,inactive: 102%
16,CCOC(=O)N1CCC(N2Cc3cccc(C(=O)NCc4ccccc4OC)c3C2=O)CC1,active: -100%
17,Oc1ccc(/C=N/Nc2cc(N3CCCC3)nc(N3CCCC3)n2)cc1,inactive: -20.6%
18,CCc1ccc(-c2csc(-c3c[nH]c4ccccc34)n2)cc1,inactive: 10.9%
19,CCc1ccccc1NC(=O)CN(C)C(=O)CSc1nn(-c2ccccc2)c(=S)s1,inactive: -6.35%
20,Cc1csc(NC(=O)/C=C/c2ccc3c(c2)OCO3)n1,inconclusive: -34.2%
21,COc1cc(OC)c(C(=O)NC2CCCCCC2)cc1OC,inconclusive: -69.1%
22,COc1ccnc(CSC(N)=Nc2ccccc2C(F)(F)F)c1,inactive: 9.83%
23,CCOC(=O)c1cc2c(=O)n3ccccc3nc2n(CCCOC)c1=NC(C)=O,inconclusive: -70.2%
